# Article PMC11018626
# For some of these results: Weaker means in comparison with the reference protein, sequence or condition of that experiment. For some of these results: The exact form of at least one protein or probe is not confirmed. For some of these results: At least one verdict rests on a figure or table, not on a statement of the authors.
# Legend:
# [1] = molecular target: Rho (transcription termination factor) (Escherichia coli) (UniProt P0AG30); test: fluorescence anisotropy; conditions: Anisotropy: 20 mM Na-HEPES pH 7.5, 150 mM KCl, 5% glycerol, 5 mM MgCl2, 0.5 mM TCEP, 5 µM FAM-dC15 or 2 µM FAM-rU12, temperature not stated, recombinant protein, residues 1-419, label: 5'-FAM
# [2] = molecular target: Rho K115E (Escherichia coli) (UniProt P0AG30); test: analytical SEC; conditions: recombinant protein; residues 1-419
# [3] = molecular target: Rho (transcription termination factor) (Escherichia coli) (UniProt P0AG30); test: analytical SEC; conditions: recombinant protein; residues 1-419
# [4] = system: Rho (transcription termination factor) + RNA polymerase + NusA + NusG; test: analytical SEC; conditions: recombinant protein, protein details: His6 on beta' (pVS10)
sequence,measurement,setting,value
CCCCCCCCCCCCCCC [dC15],binding result,"[1]; Rof wt (0-100 µM), single-stranded DNA",binds more weakly
GGGAUAACCCCGCUCUUACACAUUCCAGCCCUGAAAAAGGGCAUCAAAUUAAACCACACCUAUGGUGUAUGUCAAAUUAAACCACA [rut RNA (lambda tR1)],binding result,[2],binds more weakly
same,binding result,[3],binds
GTTATCCGCTCACAATGCCACACGCGCTGCTCGGCCGTTATTCGCAGCCC / GGGCTGCGAATAACGGCCGAGCAGCGTAGCATTACTTGTGAGCGGATAAC / ACACCUGGCGUGUGGC [rut-less RNA / DNA elongation scaffold],binding result,"[4]; 3-fold excess of Rho hexamer over NusA/NusG-EC, no Rof",binds
same,binding result,"[4]; 10-fold excess Rof added to pre-formed complex, Rho dissociates",binds more weakly
same,binding result,"[4]; Rho pre-bound by Rof, impaired Rho association with NusA/NusG-EC",binds more weakly
UUUUUUUUUUUU [rU12],binding result,"[1]; 2 mM ADP-BeF3, 10 µM unlabeled dC15, Rof wt (0-100 µM)",binds more weakly
